The values below come from patent US6515005B2, “Substituted azole derivatives as inhibitors of corticotropin releasing factor” (Bristol-Myers Squibb Company, priority 2000, dated 2003).

The chains behind the UniProt entries cited, without tags or fusion partners. Residues count along the entry.
UniProt P34998, 24-415 limits assumed: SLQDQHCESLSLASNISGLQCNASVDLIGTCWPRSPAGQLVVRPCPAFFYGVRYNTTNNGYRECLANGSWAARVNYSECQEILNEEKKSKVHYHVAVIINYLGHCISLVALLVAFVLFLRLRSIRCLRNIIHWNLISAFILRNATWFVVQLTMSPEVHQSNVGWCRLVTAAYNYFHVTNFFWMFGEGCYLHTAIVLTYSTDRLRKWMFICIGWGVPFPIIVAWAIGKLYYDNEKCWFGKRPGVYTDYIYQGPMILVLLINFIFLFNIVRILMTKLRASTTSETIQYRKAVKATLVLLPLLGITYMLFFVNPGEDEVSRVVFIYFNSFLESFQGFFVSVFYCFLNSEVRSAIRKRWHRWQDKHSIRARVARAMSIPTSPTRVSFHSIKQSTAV

Structures were worked out from names or drawings and are uncertain.

This test has as its target CRF1 receptor (Homo sapiens, UniProt P34998). Description: CRF1 receptor radioligand binding assay ([125I]-oCRF competition, IMR-32 cell membranes). The settings on record: Second Set of Examples (Table 2), [125I]-oCRF (100 pM).

In the case of `FC(F)(F)c1nc(Nc2c(Cl)cc(Cl)cc2Cl)sc1CNCc1ccc(Cl)cc1`, the IC50 (as a rule, the concentration that inhibits the measured activity by half) was 6.27 µM.
